No constants are given. Whether binding was seen depends on the method and setting. A result given as binding can be weak or reduced; the word gives no strength.
B1: D. rerio NCOA1 N-CID-C (CID with N- and C-terminal flanking regions) (domain or fragment)
chain: GSEPMTFDNSLANQTQAPLSSPQEQCVPCPLDEMLCPPTTPEGRNDEKALLEQLVTFLSHTDESELAELDRALGIDKIVQSGCLEPVTQTPFPQSQPPTPVPLDPKLPSYPSQFPTSPSQFP
B2: D. rerio NCOA2 N-CID-C (CID with N- and C-terminal flanking regions) (domain or fragment)
chain: GPGSPPNQTAPWPDSVMPIEPVPFGNQSSSMYGGSQEDVLCPPASEGPADEGALLSQLYSALKDFDGLEEIDRALGIPALVGQAQPVEQDQFPGQDPSMMMDQKPPMYGQQQYASSPANMQQAG
B3: D. rerio NCOA3 N-CID-C (CID with N- and C-terminal flanking regions) (domain or fragment)
chain: GSPPQSPSWPDSGMGMEGPPSANRLPINSPLDELLAPPSTSEGQSDERALLDQLDSLLNNTDVIALEEIDRALGIPDLINQGHSSDQPPPSDPFSGPCLGPDSSMGMEPPKAMYGQGYPGPP

biological target: D. rerio NCBD (nuclear coactivator binding domain of CBP), Trp variant (D. rerio); assay: stopped-flow spectroscopy; Trp variant of NCBD mixed with CID at varied concentration; kon from the slope of kobs, koff from displacement with excess wild-type NCBD, Kd = koff/kon; 20 mM sodium phosphate pH 7.40, 150 mM NaCl, 4 °C; both purified

binding, binds:
GSEGQSDERALLDQLDSLLNNTDVIALEEIDRALGIPDLINQGH (domain or fragment) [D. rerio NCOA3 CID (minimal region)], B1, GSEGRNDEKALLEQLVTFLSHTDESELAELDRALGIDKIVQSGC (domain or fragment) [D. rerio NCOA1 CID (minimal region)], B2, GPGSASEGPADEGALLSQLYSALKDFDGLEEIDRALGIPALVGQAQ (domain or fragment) [D. rerio NCOA2 CID (minimal region)], B3

Reference: PMC10515491, “Intrinsically Disordered Flanking Regions Increase the Affinity of a Transcriptional Coactivator Interaction across Vertebrates” (Biochemistry, 2023)
